These are yes or no findings as the source states them, for the method shown. Binding seen in cells or lysates may run through a third protein. Some entries that bind do so weakly or less than the wild type. Tags and fused reporters may be left off the sequences shown.
Assays:
[1] = molecular target: Myc-tagged full-length Na+/K+-ATPase β1 (UniProt P14094); assay: co-IP; Flag-tagged full-length NDRG2 and Myc-tagged Na+/K+-ATPase β1 cotransfected into HEK293 cells for 48 h; IP with anti-Myc or anti-Flag, immunoblot; lysis buffer 50 mM Tris-HCl, 150 mM NaCl, 5 mM EDTA, 1% Lubrol; 10 h at 4 °C
[2] = molecular target: endogenous Na+/K+-ATPase β1 (mouse (endogenous in cultured mouse astrocytes and mouse brain)) (UniProt P14094); assay: co-IP; endogenous proteins in lysate of cultured mouse astrocytes; lysis buffer 50 mM Tris-HCl, 150 mM NaCl, 5 mM EDTA, 1% Lubrol; protein A/G Sepharose, 10 h at 4 °C

binding [1]	binding [2]	Binder
binds		Flag-tagged full-length NDRG2 (N-myc downstream regulated gene 2) (protein, UniProt Q9QYG0 1-371) MAELQEVQITEEKPLLPGQTPETAKEAELAARILLDQGQTHSVETPYGSVTFTVYGTPKPKRPAIFTYHDVGLNYKSCFQPLFRFGDMQEIIQNFVRVHVDAPGMEEGAPVFPLGYQYPSLDQLADMIPCILQYLNFSTIIGVGVGAGAYILSRYALNHPDTVEGLVLINIDPNAKGWMDWAAHKLTGLTSSIPDMILGHLFSQEELSGNSELIQKYRGIIQHAPNLENIELYWNSYNNRRDLNFERGGETTLKCPVMLVVGDQAPHEDAVVECNSKLDPTQTSFLKMADSGGQPQLTQPGKLTEAFKYFLQGMGYMASSCMTRLSRSRTASLTSAASIDGSRSRSRTLSQSSESGTLPSGPPGHTMEVSC
	binds	endogenous NDRG2 (N-myc downstream regulated gene 2) (protein, UniProt Q9QYG0 1-371) MAELQEVQITEEKPLLPGQTPETAKEAELAARILLDQGQTHSVETPYGSVTFTVYGTPKPKRPAIFTYHDVGLNYKSCFQPLFRFGDMQEIIQNFVRVHVDAPGMEEGAPVFPLGYQYPSLDQLADMIPCILQYLNFSTIIGVGVGAGAYILSRYALNHPDTVEGLVLINIDPNAKGWMDWAAHKLTGLTSSIPDMILGHLFSQEELSGNSELIQKYRGIIQHAPNLENIELYWNSYNNRRDLNFERGGETTLKCPVMLVVGDQAPHEDAVVECNSKLDPTQTSFLKMADSGGQPQLTQPGKLTEAFKYFLQGMGYMASSCMTRLSRSRTASLTSAASIDGSRSRSRTLSQSSESGTLPSGPPGHTMEVSC

— paper PMC7067740
